# Measurements: PubChem BioAssay (EPA / NIEHS)
# The chains behind the UniProt entries cited, without tags or fusion partners. Where a name states a change or a piece, a line headed by the entry shows the natural chain unless it says otherwise.
# UniProt O75469: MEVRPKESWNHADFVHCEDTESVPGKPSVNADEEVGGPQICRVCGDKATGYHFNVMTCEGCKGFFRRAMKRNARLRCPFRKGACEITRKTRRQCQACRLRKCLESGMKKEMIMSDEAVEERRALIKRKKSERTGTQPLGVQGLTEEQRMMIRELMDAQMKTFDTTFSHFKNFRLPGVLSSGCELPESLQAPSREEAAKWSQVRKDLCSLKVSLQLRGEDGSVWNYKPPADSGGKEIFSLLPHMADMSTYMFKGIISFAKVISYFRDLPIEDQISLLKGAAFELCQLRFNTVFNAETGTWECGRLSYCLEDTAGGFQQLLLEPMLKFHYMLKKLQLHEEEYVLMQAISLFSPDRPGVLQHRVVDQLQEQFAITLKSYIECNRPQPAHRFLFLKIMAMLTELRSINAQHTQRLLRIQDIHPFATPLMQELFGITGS
# UniProt P13631, whole entry, looked up: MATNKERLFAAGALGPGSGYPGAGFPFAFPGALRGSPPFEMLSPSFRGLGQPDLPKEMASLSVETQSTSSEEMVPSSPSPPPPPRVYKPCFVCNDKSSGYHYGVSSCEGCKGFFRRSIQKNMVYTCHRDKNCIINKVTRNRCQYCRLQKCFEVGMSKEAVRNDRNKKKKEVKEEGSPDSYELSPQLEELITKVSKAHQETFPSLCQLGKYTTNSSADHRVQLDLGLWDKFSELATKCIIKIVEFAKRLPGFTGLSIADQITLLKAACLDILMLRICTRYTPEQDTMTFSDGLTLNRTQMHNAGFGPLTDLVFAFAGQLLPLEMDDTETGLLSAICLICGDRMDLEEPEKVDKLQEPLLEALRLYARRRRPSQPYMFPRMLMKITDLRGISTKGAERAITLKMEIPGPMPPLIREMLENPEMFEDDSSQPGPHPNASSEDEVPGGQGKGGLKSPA
# UniProt Q92753: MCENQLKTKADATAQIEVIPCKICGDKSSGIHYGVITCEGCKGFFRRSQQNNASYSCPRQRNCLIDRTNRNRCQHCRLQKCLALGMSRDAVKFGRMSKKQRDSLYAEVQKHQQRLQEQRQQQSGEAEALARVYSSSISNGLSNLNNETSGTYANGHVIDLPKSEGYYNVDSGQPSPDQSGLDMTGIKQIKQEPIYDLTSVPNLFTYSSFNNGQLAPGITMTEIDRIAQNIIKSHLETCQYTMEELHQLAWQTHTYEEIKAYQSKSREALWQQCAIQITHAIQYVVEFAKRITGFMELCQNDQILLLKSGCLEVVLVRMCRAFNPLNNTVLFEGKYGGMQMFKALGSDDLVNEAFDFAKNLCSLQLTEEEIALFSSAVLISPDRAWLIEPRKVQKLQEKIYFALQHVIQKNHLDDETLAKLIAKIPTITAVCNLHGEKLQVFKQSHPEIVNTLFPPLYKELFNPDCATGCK
# UniProt P51449: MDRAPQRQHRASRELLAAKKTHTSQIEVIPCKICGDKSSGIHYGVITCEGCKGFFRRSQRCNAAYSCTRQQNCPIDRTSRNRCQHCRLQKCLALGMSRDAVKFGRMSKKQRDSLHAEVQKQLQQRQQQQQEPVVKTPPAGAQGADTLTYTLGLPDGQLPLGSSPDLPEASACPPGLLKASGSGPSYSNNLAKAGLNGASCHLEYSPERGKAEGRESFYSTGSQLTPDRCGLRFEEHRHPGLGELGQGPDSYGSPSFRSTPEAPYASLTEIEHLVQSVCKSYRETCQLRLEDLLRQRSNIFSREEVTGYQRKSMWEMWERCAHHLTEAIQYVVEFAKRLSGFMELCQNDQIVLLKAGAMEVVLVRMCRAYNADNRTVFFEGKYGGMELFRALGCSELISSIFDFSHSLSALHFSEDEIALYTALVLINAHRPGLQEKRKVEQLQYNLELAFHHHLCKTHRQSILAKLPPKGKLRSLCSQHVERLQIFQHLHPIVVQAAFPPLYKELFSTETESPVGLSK
# UniProt P28702: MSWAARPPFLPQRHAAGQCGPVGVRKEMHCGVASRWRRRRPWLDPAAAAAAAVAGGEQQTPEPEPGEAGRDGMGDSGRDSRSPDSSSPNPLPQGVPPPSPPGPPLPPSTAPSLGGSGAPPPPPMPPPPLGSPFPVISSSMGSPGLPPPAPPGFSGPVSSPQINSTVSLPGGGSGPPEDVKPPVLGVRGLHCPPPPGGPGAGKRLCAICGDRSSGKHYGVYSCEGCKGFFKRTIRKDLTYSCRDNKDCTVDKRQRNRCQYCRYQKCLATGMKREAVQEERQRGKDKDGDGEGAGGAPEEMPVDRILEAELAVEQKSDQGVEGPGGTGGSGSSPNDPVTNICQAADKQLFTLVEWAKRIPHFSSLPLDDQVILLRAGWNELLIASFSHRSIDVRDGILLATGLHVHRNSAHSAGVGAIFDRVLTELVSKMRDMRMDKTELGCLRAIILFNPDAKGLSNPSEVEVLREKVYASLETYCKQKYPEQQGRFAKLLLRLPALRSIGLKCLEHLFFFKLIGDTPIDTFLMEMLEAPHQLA
# UniProt P10827: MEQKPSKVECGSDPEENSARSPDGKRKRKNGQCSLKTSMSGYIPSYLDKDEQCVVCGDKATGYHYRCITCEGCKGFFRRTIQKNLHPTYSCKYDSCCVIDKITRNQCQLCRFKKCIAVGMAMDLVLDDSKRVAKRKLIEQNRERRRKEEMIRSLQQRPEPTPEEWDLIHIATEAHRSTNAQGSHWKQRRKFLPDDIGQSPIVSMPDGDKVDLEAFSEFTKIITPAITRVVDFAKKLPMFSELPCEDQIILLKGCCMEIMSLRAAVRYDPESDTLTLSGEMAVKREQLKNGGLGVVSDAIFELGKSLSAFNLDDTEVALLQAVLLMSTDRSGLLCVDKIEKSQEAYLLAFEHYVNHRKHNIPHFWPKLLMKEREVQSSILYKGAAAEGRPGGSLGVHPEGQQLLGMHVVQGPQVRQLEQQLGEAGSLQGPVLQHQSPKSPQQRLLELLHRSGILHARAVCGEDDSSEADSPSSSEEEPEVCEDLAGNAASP
# UniProt P11473: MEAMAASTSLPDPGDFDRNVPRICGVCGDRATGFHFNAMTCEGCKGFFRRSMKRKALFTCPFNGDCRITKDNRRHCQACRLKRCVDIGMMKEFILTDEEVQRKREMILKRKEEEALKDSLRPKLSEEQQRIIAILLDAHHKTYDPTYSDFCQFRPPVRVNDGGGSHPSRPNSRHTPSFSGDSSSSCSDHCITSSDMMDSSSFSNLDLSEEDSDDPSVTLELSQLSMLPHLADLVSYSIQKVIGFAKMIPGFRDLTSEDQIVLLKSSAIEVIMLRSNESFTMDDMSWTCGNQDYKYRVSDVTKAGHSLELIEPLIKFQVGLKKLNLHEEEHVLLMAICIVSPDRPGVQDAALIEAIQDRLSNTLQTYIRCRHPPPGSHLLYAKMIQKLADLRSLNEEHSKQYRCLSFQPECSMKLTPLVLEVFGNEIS
# UniProt P19793: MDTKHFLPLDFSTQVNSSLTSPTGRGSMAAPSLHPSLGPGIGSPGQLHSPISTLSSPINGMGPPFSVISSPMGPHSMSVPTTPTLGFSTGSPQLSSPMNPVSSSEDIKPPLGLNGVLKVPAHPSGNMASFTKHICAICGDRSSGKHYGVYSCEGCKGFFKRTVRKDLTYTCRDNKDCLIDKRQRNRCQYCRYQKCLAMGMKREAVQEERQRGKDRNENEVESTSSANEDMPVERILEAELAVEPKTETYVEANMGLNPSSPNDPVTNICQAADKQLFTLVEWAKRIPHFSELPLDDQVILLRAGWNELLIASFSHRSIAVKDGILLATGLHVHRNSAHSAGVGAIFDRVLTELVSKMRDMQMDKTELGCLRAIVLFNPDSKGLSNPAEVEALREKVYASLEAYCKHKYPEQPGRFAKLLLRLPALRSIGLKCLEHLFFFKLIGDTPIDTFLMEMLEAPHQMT
# Inconclusive means that the source gave no clear call. Such entries were picked first, then a sample of the others. Where the call is inconclusive, the potency comes from a doubtful curve fit. Active and inactive are the calls of the source. Rule for the calls: active = hit-call score of the fitted dose curve at least 0.9, where 1 is the maximum; inconclusive = response in the unintended direction; inactive = score below 0.9.
# Assays:
# [1] = biological target: Nuclear receptor subfamily 1 group I member 2 (Homo sapiens) (UniProt O75469); assay: ATG_PXR_TRANS: Attagene TRANS-FACTORIAL HepG2 Assay for human Pregnane X Receptor (PXR) (AID 2283008)
# Method in brief: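 HepG2 cells transiently transfected with multiple reporter units, here a PXR-GAL4 chimera driving a GAL4-UAS reporter; 24 h compound exposure. Reporter mRNA measured by RT-PCR, FAM labelling and capillary electrophoresis; gain of signal fitted against DMSO baseline.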
# [2] = biological target: human Retinoic Acid Receptor gamma (RARg), RARG (gene 5916) (UniProt P13631); assay: ATG_RARg_TRANS: Attagene TRANS-FACTORIAL HepG2 Assay for human Retinoic Acid Receptor gamma (RARg) (AID 2283009);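 for AC50: AC50 is for reporter induction above DMSO meaning RARg activation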
# Method in brief: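 HepG2 transiently transfected with GAL4-UAS reporter units and chimeric NR-Gal4 constructs; 24 h compound exposure. Reporter mRNA quantified by RT-PCR, FAM labeling, HpaI digestion and capillary electrophoresis; gain-of-signal versus DMSO.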
# [3] = biological target: human RAR-related Orphan Receptor beta (RORb), RORB (gene 6096) (UniProt Q92753); assay: ATG_RORb_TRANS: Attagene TRANS-FACTORIAL HepG2 Assay for human RAR-related Orphan Receptor beta (RORb) (AID 2283010);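 for AC50: potency for increased reporter mRNA meaning activation of RORb-Gal4 chimera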
# Method in brief: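 HepG2 cells transiently transfected with GAL4-UAS reporter units expressing chimeric NR-Gal4 protein; reporter mRNA measured 24 h after dosing by RT-PCR, 6-FAM labelling and capillary electrophoresis. Gain-of-signal fitted relative to DMSO baseline.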
# [4] = biological target: human RAR-related Orphan Receptor gamma (RORg), RORC (gene 6097) (UniProt P51449); assay: ATG_RORg_TRANS: Attagene TRANS-FACTORIAL HepG2 Assay for human RAR-related Orphan Receptor gamma (RORg) (AID 2283011);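 for AC50: potency for induction of reporter transcripts above DMSO so activators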
# Method in brief: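 HepG2 cells transiently transfected with GAL4-UAS reporter units and chimeric RORg-Gal4 construct; after 24 h chemical exposure, reporter mRNA measured by RT-PCR with fluorescent capillary electrophoresis, gain of signal fitted against DMSO.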
# [5] = biological target: human Retinoid X Receptor beta (RXRb), RXRB (gene 6257) (UniProt P28702); assay: ATG_RXRb_TRANS: Attagene TRANS-FACTORIAL HepG2 Assay for human Retinoid X Receptor beta (RXRb) (AID 2283013)
# Method in brief: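 HepG2 cells were transiently transfected with multiplexed GAL4-UAS reporters and a chimeric RXRb-Gal4 construct, then exposed for 24 h. Reporter mRNA was quantified by RT-PCR, FAM labeling, HpaI digestion and capillary electrophoresis; gain of signal was scored against DMSO.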
# [6] = biological target: human Thyroid Receptor alpha (THRa1), THRA (gene 7067) (UniProt P10827); assay: ATG_THRa1_TRANS: Attagene TRANS-FACTORIAL HepG2 Assay for human Thyroid Receptor alpha (THRa1) (AID 2283014)
# Method in brief: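 HepG2 cells transiently transfected with chimeric NR-Gal4 and GAL4-UAS reporter units, dosed 24 h. Reporter mRNA quantified by RT-PCR, fluorescent labeling, HpaI digestion and capillary electrophoresis; gain-of-signal fit versus DMSO.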
# [7] = biological target: human Vitamin D Receptor (VDR), VDR (gene 7421) (UniProt P11473); assay: ATG_VDR_TRANS: Attagene TRANS-FACTORIAL HepG2 Assay for human Vitamin D Receptor (VDR) (AID 2283022)
# Method in brief: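 HepG2 cells were transiently transfected with GAL4-UAS reporter units and a chimeric VDR-Gal4 construct, then dosed for 24 hours. Reporter mRNA was quantified by RT-PCR, fluorescent labeling, HpaI digestion and capillary electrophoresis; gain of signal analysed vs DMSO.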
# [8] = biological target: Retinoic acid receptor RXR-alpha (Homo sapiens) (UniProt P19793); assay: ATG_RXRa_TRANS: Attagene TRANS-FACTORIAL HepG2 Assay for human Retinoid X Receptor alpha (RXRa) (AID 2283012)
# Method in brief: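 HepG2 cells transiently transfected with GAL4-UAS reporter units and chimeric RXRa-Gal4 protein, treated 24 h. Reporter mRNA measured by RT-PCR, fluorescent labelling, HpaI digestion and capillary electrophoresis. Induction fitted against DMSO.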
smiles,measurement,setting,value
O=C1OC(=O)C(F)(F)C1(F)F,AC50,[1],inconclusive: 150 µM
same,outcome,[2],inactive
same,AC50,[3],inconclusive: 150 µM
same,AC50,[4],inconclusive: 150 µM
same,AC50,[5],inconclusive: 150 µM
same,AC50,[7],inconclusive: 150 µM
CCCC(=O)C(CC)Sc1ccoc1C (stereo not given),AC50,[1],active: 9.72 µM
same,AC50,[2],inconclusive: 100 µM
same,AC50,[3],inconclusive: 20.3 µM
same,AC50,[4],inconclusive: 19.8 µM
same,AC50,[5],active: 46.1 µM
same,outcome,[6],inactive
Nc1nc(N)c2nc(CNc3ccc(C(=O)N[C@@H](CCC(=O)O)C(=O)O)cc3)cnc2n1,AC50,[1],inconclusive: 94.5 µM
same,outcome,[2],inactive
same,outcome,[3],inactive
same,outcome,[4],inactive
same,outcome,[5],inactive
same,outcome,[6],inactive
same,outcome,[7],inactive
O=C(O)CN(CCN(CC(=O)O)CC(=O)O)CCN(CC(=O)O)CC(=O)O,AC50,[1],inconclusive: 0.102 µM
same,outcome,[2],inactive
same,outcome,[3],inactive
same,outcome,[4],inactive
same,AC50,[5],inconclusive: 13.5 µM
same,AC50,[7],inconclusive: 0.174 µM
NCCCN1CCN(CCCN)CC1,outcome,[1],inactive
same,outcome,[2],inactive
same,outcome,[3],inactive
same,AC50,[8],inconclusive: 100 µM
Cc1ccccc1S(N)(=O)=O,outcome,[1],inactive
same,AC50,[2],inconclusive: 100 µM
same,AC50,[3],inconclusive: 169 µM
same,AC50,[4],inconclusive: 100 µM
same,outcome,[5],inactive
same,outcome,[6],inactive
same,AC50,[7],inconclusive: 100 µM
CCCCCCCCCCCSCC(=O)O,outcome,[1],inactive
same,AC50,[2],inconclusive: 163 µM
same,AC50,[3],inconclusive: 158 µM
same,AC50,[4],inconclusive: 100 µM
same,AC50,[5],active: 11.5 µM
same,outcome,[6],inactive
CCc1ccc(C)nc1,AC50,[1],inconclusive: 100 µM
same,AC50,[2],inconclusive: 100 µM
same,AC50,[3],inconclusive: 100 µM
same,AC50,[8],inconclusive: 19.8 µM
same,AC50,[5],inconclusive: 100 µM
same,AC50,[6],inconclusive: 100 µM
same,AC50,[7],inconclusive: 0.796 µM
CCSC(=O)N(CC(C)C)CC(C)C,AC50,[1],inconclusive: 1.88 µM
same,AC50,[2],inconclusive: 0.0565 µM
same,AC50,[3],inconclusive: 91.5 µM
same,outcome,[4],inactive
same,AC50,[6],inconclusive: 1.38 µM
same,AC50,[7],inconclusive: 50 µM
O=C1CCC(N2C(=O)c3ccccc3C2=O)C(=O)N1 (stereo not given),AC50,[1],inconclusive: 100 µM
same,AC50,[2],inconclusive: 100 µM
same,AC50,[3],inconclusive: 100 µM
same,AC50,[8],inconclusive: 26.3 µM
same,AC50,[5],inconclusive: 100 µM
O=C(Cl)C(F)(F)C(F)(F)C(F)(F)C(F)(F)C(F)(F)C(F)(F)F,outcome,[1],inactive
same,outcome,[2],inactive
same,AC50,[3],inconclusive: 100 µM
same,AC50,[4],inconclusive: 100 µM
same,AC50,[6],inconclusive: 27.8 µM
O=c1[nH]c(=O)c2cn[nH]c2[nH]1,AC50,[1],inconclusive: 100 µM
same,AC50,[2],inconclusive: 100 µM
same,outcome,[3],inactive
same,AC50,[4],inconclusive: 100 µM
same,AC50,[5],inconclusive: 3.11 µM
same,AC50,[7],inconclusive: 7.45 µM

# 5 successive entries out of the list so far, for reference:
smiles,measurement,setting,value
Cc1ccccc1S(N)(=O)=O,AC50,[7],inconclusive: 100 µM
CCCCCCCCCCCSCC(=O)O,outcome,[1],inactive
same,AC50,[2],inconclusive: 163 µM
same,AC50,[3],inconclusive: 158 µM
same,AC50,[4],inconclusive: 100 µM
